Measured values taken from PMC9795356.
No constants are given. Whether binding was seen depends on the method and setting. Binding seen in cells or lysates may run through a third protein. These calls come from enrichment with a bait or labelling near it, and not all partners need be listed. Sequences can lack the tags named with a protein.

By UniProt entry, the sequences of proteins in these tests, tags left out.
UniProt Q9P1Y6: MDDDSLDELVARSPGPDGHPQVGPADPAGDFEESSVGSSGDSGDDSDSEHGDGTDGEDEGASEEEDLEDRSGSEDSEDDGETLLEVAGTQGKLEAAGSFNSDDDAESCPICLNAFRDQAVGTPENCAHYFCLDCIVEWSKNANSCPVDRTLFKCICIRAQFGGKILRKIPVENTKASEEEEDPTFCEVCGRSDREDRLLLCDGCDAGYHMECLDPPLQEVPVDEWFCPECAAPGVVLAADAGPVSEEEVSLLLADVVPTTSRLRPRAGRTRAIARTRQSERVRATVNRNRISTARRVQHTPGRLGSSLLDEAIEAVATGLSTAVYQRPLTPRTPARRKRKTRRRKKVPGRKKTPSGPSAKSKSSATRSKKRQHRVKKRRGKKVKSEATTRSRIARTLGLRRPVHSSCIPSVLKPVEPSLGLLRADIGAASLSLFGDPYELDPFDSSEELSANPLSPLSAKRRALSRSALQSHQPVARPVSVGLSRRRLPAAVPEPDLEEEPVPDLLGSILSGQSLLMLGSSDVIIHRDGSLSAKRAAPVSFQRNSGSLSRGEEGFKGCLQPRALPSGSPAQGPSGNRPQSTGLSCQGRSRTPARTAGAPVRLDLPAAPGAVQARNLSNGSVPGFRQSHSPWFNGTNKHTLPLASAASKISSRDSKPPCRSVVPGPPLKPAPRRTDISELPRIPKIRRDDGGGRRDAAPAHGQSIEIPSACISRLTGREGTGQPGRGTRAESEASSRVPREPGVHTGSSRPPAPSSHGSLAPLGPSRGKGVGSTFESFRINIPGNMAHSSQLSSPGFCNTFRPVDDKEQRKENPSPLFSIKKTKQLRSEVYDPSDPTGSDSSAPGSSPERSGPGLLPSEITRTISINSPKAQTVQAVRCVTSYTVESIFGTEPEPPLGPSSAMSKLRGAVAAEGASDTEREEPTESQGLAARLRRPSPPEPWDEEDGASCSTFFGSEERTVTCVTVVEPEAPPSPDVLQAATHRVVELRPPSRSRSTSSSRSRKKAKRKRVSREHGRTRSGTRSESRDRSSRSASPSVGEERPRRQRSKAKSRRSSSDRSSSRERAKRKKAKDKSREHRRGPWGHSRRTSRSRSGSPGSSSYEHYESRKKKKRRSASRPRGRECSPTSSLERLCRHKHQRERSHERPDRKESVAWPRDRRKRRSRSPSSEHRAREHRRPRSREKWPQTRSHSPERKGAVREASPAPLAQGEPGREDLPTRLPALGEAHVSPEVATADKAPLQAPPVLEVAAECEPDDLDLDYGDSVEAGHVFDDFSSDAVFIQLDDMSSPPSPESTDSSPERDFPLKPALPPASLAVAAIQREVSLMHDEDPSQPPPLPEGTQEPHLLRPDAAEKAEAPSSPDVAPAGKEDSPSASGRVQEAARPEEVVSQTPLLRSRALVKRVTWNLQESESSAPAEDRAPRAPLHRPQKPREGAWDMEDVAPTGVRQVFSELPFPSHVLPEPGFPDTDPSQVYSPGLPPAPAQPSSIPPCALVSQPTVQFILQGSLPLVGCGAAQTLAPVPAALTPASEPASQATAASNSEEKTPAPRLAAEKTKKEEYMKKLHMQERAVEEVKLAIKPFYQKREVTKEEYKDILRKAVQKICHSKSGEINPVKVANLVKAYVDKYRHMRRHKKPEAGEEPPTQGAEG
UniProt Q5VT52: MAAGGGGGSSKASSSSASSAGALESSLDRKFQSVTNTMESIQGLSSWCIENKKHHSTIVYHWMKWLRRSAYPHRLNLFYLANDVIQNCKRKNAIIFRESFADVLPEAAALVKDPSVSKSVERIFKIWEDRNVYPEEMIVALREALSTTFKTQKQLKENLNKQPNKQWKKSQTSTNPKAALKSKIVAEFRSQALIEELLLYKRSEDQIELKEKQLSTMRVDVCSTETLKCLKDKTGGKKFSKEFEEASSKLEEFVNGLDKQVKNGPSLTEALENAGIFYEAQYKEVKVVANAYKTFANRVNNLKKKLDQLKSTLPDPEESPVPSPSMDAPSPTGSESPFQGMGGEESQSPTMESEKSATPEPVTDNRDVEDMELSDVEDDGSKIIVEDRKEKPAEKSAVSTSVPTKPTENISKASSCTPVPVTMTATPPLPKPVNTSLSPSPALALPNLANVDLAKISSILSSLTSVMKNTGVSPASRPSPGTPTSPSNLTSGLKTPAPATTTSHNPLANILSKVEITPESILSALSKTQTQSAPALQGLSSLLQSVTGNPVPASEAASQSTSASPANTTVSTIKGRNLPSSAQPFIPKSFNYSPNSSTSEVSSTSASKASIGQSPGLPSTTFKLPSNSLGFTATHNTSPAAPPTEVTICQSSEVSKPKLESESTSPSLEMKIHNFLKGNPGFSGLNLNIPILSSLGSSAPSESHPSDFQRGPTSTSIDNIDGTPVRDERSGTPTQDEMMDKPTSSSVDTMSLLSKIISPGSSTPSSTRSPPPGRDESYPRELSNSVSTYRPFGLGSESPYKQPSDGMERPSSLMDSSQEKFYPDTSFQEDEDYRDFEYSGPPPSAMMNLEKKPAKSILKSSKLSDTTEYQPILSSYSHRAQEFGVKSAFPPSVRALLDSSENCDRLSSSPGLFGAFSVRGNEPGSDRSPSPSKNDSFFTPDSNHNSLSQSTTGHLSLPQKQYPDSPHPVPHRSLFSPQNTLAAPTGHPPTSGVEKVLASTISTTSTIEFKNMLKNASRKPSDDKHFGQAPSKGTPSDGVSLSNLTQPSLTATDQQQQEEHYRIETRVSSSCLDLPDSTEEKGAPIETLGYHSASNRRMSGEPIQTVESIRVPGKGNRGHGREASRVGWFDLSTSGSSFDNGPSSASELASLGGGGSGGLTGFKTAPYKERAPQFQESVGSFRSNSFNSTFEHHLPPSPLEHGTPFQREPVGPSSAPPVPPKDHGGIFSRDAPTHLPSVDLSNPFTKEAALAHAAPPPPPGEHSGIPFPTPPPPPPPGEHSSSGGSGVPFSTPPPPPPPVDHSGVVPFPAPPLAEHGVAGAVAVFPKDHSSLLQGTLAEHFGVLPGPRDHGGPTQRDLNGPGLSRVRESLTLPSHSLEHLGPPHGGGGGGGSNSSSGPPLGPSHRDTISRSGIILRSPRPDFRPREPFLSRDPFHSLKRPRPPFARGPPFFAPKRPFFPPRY
UniProt Q8IXW5: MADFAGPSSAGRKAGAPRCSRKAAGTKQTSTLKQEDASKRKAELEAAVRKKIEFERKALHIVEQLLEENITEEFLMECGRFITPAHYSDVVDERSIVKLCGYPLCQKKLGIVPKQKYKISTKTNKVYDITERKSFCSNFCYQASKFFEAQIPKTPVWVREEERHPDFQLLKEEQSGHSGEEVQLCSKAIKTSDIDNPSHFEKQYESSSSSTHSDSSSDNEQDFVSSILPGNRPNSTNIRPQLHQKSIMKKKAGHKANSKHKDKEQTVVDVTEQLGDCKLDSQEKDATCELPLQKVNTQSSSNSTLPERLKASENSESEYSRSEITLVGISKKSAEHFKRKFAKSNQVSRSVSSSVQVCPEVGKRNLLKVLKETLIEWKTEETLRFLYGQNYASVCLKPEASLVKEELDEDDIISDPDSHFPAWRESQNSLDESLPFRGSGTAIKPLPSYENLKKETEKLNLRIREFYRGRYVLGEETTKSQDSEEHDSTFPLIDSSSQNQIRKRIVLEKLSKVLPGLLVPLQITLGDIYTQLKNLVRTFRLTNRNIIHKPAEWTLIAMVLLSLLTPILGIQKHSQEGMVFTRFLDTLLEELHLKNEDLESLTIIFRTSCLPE
UniProt O94762: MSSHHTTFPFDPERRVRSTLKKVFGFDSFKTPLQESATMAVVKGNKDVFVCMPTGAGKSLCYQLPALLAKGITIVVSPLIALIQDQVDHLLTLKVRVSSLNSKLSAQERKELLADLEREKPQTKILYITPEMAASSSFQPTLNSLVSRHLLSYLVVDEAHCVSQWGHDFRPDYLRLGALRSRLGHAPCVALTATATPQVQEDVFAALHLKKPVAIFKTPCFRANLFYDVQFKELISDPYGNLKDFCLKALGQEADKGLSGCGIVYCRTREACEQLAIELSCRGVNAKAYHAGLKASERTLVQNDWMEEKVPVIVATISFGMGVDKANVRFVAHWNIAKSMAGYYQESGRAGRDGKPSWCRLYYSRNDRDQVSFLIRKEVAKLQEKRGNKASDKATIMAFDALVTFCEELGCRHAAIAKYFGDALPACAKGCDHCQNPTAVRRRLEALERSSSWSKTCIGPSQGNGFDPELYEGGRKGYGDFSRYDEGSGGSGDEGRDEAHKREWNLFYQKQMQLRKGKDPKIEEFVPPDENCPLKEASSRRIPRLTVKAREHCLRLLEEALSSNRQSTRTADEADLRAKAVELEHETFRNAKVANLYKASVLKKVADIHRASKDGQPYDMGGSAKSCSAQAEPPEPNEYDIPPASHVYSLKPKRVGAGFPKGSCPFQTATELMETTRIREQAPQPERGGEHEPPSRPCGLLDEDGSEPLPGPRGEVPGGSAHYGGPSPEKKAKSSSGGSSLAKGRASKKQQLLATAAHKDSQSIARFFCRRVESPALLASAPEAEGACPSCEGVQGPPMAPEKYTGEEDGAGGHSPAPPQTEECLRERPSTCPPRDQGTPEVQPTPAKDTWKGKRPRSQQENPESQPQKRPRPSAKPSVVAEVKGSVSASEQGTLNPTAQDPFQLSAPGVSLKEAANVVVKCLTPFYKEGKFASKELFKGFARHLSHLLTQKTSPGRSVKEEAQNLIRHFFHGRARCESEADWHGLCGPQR

T1: FLAG-SCAF8 (human) (UniProt Q9UPN6)
T1 sequence: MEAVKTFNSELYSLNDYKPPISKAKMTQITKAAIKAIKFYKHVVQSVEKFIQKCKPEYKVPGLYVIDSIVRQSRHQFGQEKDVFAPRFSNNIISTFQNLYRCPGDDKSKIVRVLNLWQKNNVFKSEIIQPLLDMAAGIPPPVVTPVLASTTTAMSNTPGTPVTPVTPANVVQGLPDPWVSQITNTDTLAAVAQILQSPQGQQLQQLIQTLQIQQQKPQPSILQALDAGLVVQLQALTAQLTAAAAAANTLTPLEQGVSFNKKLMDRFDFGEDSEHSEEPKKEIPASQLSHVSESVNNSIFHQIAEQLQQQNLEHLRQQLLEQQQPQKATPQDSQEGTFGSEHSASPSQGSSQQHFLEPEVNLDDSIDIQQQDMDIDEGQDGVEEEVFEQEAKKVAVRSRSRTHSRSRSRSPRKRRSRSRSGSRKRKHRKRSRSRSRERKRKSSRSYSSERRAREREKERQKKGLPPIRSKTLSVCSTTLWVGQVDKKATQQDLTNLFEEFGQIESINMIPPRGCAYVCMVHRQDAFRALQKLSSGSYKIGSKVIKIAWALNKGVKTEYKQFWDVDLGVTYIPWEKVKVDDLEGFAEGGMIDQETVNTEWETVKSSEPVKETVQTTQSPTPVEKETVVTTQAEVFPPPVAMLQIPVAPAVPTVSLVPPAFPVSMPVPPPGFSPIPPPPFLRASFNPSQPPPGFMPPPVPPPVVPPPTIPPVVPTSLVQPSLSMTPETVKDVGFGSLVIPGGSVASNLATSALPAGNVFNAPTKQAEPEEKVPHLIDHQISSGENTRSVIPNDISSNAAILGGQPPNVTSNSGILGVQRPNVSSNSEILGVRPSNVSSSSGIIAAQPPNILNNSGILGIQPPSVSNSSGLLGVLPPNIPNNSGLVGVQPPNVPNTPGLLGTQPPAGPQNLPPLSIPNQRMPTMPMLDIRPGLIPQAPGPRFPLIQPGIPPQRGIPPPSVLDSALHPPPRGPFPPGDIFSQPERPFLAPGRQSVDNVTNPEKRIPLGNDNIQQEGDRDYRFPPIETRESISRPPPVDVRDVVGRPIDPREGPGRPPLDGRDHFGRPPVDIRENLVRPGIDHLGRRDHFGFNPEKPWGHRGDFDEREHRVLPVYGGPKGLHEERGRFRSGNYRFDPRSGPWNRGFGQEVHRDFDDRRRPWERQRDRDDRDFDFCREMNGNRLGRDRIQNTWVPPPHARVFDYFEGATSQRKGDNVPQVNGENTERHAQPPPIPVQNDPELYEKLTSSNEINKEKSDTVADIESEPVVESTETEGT

T2: FLAG-SCAF4 (human) (UniProt O95104)
T2 sequence: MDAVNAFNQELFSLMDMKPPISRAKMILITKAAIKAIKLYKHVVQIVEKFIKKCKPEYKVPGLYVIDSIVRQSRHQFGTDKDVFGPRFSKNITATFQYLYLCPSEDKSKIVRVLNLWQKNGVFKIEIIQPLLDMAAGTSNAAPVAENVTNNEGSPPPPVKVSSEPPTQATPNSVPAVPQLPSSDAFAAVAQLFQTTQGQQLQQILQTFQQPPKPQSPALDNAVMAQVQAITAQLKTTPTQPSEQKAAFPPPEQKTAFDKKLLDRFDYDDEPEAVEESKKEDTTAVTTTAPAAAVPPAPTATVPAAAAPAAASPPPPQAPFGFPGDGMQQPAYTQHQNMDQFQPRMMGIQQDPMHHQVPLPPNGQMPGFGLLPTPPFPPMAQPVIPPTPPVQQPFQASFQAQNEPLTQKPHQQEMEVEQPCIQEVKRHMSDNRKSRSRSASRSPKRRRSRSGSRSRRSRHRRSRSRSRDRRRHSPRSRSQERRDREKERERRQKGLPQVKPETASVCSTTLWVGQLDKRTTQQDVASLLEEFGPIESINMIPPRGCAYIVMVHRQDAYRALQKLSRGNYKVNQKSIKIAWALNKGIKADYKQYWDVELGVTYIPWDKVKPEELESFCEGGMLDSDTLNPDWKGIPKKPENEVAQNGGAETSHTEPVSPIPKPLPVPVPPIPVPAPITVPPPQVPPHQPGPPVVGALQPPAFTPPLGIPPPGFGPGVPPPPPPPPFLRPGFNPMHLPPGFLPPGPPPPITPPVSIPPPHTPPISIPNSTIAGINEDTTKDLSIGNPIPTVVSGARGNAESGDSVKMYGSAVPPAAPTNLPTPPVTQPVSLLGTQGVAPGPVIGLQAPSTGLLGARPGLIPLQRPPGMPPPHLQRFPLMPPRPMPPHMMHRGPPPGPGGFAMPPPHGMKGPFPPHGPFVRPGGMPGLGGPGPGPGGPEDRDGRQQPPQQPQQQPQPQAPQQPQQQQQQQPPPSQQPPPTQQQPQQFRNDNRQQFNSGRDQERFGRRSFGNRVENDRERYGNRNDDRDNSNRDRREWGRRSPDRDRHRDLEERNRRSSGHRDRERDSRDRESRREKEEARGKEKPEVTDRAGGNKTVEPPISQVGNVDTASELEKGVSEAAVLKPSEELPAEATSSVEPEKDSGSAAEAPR

B1: RPRD1B (protein, UniProt Q9NQG5 1-326)
chain: MSSFSESALEKKLSELSNSQQSVQTLSLWLIHHRKHAGPIVSVWHRELRKAKSNRKLTFLYLANDVIQNSKRKGPEFTREFESVLVDAFSHVAREADEGCKKPLERLLNIWQERSVYGGEFIQQLKLSMEDSKSPPPKATEEKKSLKRTFQQIQEEEDDDYPGSYSPQDPSAGPLLTEELIKALQDLENAASGDATVRQKIASLPQEVQDVSLLEKITDKEAAERLSKTVDEACLLLAEYNGRLAAELEDRRQLARMLVEYTQNQKDVLSEKEKKLEEYKQKLARVTQVRKELKSHIQSLPDLSLLPNVTGGLAPLPSAGDLFSTD
B2: SCAF1 (protein, UniProt Q9H7N4 1-1312)
chain: MEEEDESRGKTEESGEDRGDGPPDRDPTLSPSAFILRAIQQAVGSSLQGDLPNDKDGSRCHGLRWRRCRSPRSEPRSQESGGTDTATVLDMATDSFLAGLVSVLDPPDTWVPSRLDLRPGESEDMLELVAEVRIGDRDPIPLPVPSLLPRLRAWRTGKTVSPQSNSSRPTCARHLTLGTGDGGPAPPPAPSSASSSPSPSPSSSSPSPPPPPPPPAPPAPPAPRFDIYDPFHPTDEAYSPPPAPEQKYDPFEPTGSNPSSSAGTPSPEEEEEEEEEEEEEEEDEEEEEGLSQSISRISETLAGIYDDNSLSQDFPGDESPRPDAQPTQPTPAPGTPPQVDSTRADGAMRRRVFVVGTEAEACREGKVSVEVVTAGGAALPPPLLPPGDSEIEEGEIVQPEEEPRLALSLFRPGGRAARPTPAASATPTAQPLPQPPAPRAPEGDDFLSLHAESDGEGALQVDLGEPAPAPPAADSRWGGLDLRRKILTQRRERYRQRSPSPAPAPAPAAAAGPPTRKKSRRERKRSGEAKEAASSSSGTQPAPPAPASPWDSKKHRSRDRKPGSHASSSARRRSRSRSRSRSTRRRSRSTDRRRGGSRRSRSREKRRRRRRSASPPPATSSSSSSRRERHRGKHRDGGGSKKKKKRSRSRGEKRSGDGSEKAPAPAPPPSGSTSCGDRDSRRRGAVPPSIQDLTDHDLFAIKRTITVGRLDKSDPRGPSPAPASSPKREVLYDSEGLSGEERGGKSSQKDRRRSGAASSSSSSREKGSRRKALDGGDRDRDRDRDRDRDRSSKKARPPKESAPSSGPPPKPPVSSGSGSSSSSSSCSSRKVKLQSKVAVLIREGVSSTTPAKDAASAGLGSIGVKFSRDRESRSPFLKPDERAPTEMAKAAPGSTKPKKTKVKAKAGAKKTKGTKGKTKPSKTRKKVRSGGGSGGSGGQVSLKKSKADSCSQAAGTKGAEETSWSGEERAAKVPSTPPPKAAPPPPALTPDSQTVDSSCKTPEVSFLPEEATEEAGVRGGAEEEEEEEEEEEEEEEEEEQQPATTTATSTAAAAPSTAPSAGSTAGDSGAEDGPASRVSQLPTLPPPMPWNLPAGVDCTTSGVLALTALLFKMEEANLASRAKAQELIQATNQILSHRKPPSSLGMTPAPVPTSLGLPPGPSSYLLPGSLPLGGCGSTPPTPTGLAATSDKREGSSSSEGRGDTDKYLKKLHTQERAVEEVKLAIKPYYQKKDITKEEYKDILRKAVHKICHSKSGEINPVKVSNLVRAYVQRYRYFRKHGRKPGDPPGPPRPPKEPGPPDKGGPGLPLPPL
B3: SCAF11 (protein, UniProt Q99590 1-1463)
chain: MKKKTVCTLNMGDKKYEDMEGEENGDNTISTGLLYSEADRCPICLNCLLEKEVGFPESCNHVFCMTCILKWAETLASCPIDRKPFQAVFKFSALEGYVKVQVKKQLRETKDKKNENSFEKQVSCHENSKSCIRRKAIVREDLLSAKVCDLKWIHRNSLYSETGGKKNAAIKINKPQRSNWSTNQCFRNFFSNMFSSVSHSGESSFTYRAYCTEFIEASEISALIRQKRHELELSWFPDTLPGIGRIGFIPWNVETEVLPLISSVLPRTIFPTSTISFEHFGTSCKGYALAHTQEGEEKKQTSGTSNTRGSRRKPAMTTPTRRSTRNTRAETASQSQRSPISDNSGCDAPGNSNPSLSVPSSAESEKQTRQAPKRKSVRRGRKPPLLKKKLRSSVAAPEKSSSNDSVDEETAESDTSPVLEKEHQPDVDSSNICTVQTHVENQSANCLKSCNEQIEESEKHTANYDTEERVGSSSSESCAQDLPVLVGEEGEVKKLENTGIEANVLCLESEISENILEKGGDPLEKQDQISGLSQSEVKTDVCTVHLPNDFPTCLTSESKVYQPVSCPLSDLSENVESVVNEEKITESSLVEITEHKDFTLKTEELIESPKLESSEGEIIQTVDRQSVKSPEVQLLGHVETEDVEIIATCDTFGNEDFNNIQDSENNLLKNNLLNTKLEKSLEEKNESLTEHPRSTELPKTHIEQIQKHFSEDNNEMIPMECDSFCSDQNESEVEPSVNADLKQMNENSVTHCSENNMPSSDLADEKVETVSQPSESPKDTIDKTKKPRTRRSRFHSPSTTWSPNKDTPQEKKRPQSPSPRRETGKESRKSQSPSPKNESARGRKKSRSQSPKKDIARERRQSQSRSPKRDTTRESRRSESLSPRRETSRENKRSQPRVKDSSPGEKSRSQSRERESDRDGQRRERERRTRKWSRSRSHSRSPSRCRTKSKSSSFGRIDRDSYSPRWKGRWANDGWRCPRGNDRYRKNDPEKQNENTRKEKNDIHLDADDPNSADKHRNDCPNWITEKINSGPDPRTRNPEKLKESHWEENRNENSGNSWNKNFGSGWVSNRGRGRGNRGRGTYRSSFAYKDQNENRWQNRKPLSGNSNSSGSESFKFVEQQSYKRKSEQEFSFDTPADRSGWTSASSWAVRKTLPADVQNYYSRRGRNSSGPQSGWMKQEEETSGQDSSLKDQTNQQVDGSQLPINMMQPQMNVMQQQMNAQHQPMNIFPYPVGVHAPLMNIQRNPFNIHPQLPLHLHTGVPLMQVATPTSVSQGLPPPPPPPPPSQQVNYIASQPDGKQLQGIPSSSHVSNNMSTPVLPAPTAAPGNTGMVQGPSSGNTSSSSHSKASNAAVKLAESKVSVAVEASADSSKTDKKLQIQEKAAQEVKLAIKPFYQNKDITKEEYKEIVRKAVDKVCHSKSGEVNSTKVANLVKAYVDKYKYSRKGSQKKTLEEPVSTEKNIG

Key:
FLAG-SCAF8 (human) = target: T1, FLAG-SCAF8 (human); test: affinity purification with mass spectrometry; SCAF4 or SCAF8 ELCAP-MS: double IP (FLAG IP, 3xFLAG peptide elution, then RNAPII 4H8 IP) from Benzonase-treated chromatin extract; label-free, two biological replicates, triplicate injection; control: parental HEK293 cells
FLAG-SCAF4 (human) = target: T2, FLAG-SCAF4 (human); test: as above

| Molecule | binding (FLAG-SCAF8 (human)) | binding (FLAG-SCAF4 (human)) |
| --- | --- | --- |
| PHRF1 (from UniProt Q9P1Y6 1-1649) | binds | binds |
| RPRD2 (from UniProt Q5VT52 1-1461) | binds | binds |
| RPAP2 (from UniProt Q8IXW5 1-612) | binds | binds |
| RECQL5 (from UniProt O94762 1-991) | binds | binds |
| B1 | binds | binds |
| B2 | binds | binds |
| B3 | binds | – |
